The whole screen tested about 31,000 sequences, of which about 1,400 (4.5%) were called active.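 How the source made its calls: active means median seed-adjusted z-score above 1 or below -1; inactive means the rest.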 Some of the results follow.

This experiment is described as follows: Novel Modifiers of Survival Motor Neuron (SMN) Protein: Gene Identification via Genome-wide siRNA Screen.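 Further: luminescence tracks full-length SMN protein made from the SMN2 reporter.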 The note with it: HEK293T SMN2-luciferase reporter, siRNA knockdown, 72 h; actives lie on both sides. The gist of the method:
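Each of three siRNAs per gene is reverse-transfected (1 pmol) into reporter HEK293T cells whose luciferase output tracks SMN protein level. After 72 h culture, ONE-Glo luminescence is control-normalized, log10-transformed and MAD-standardized; Common Seed Analysis deprioritizes seed-driven hits.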
For GCUUGCUACUUUAUCGAGATT against ERCC6L, the median seed-adjusted z-score is inactive: -0.0229.

As for AGGUAUGUAUUGUCCUCUATT against CKMT1B, the median seed-adjusted z-score was inactive: -0.929. CCAACGCAGUAAUGGUUUATT against KIF2C: the median seed-adjusted z-score was inactive: 0.0122. As to GGAAGUGCCCAGUGACUUATT against SLPI, the median seed-adjusted z-score was inactive: 0.274. As to GGGCUACUACUCAACCACATT against TACR1, the median seed-adjusted z-score was inactive: -0.391. For CAUGGAUGAGUUUACCCAATT against APEX2, the median seed-adjusted z-score was inactive: -0.347.

Regarding AGACCGAGUUUGGAUCCAATT against DTX1, the median seed-adjusted z-score is inactive: -0.0757.

On to GAACGUAGAAUGAAAGUAATT against PSMC1, for which the median seed-adjusted z-score was active: -2.23. Take GCUCUAUUGUGCACUCGGATT against POU3F3: the median seed-adjusted z-score is inactive: -0.366.

Regarding UGGUUACUCUGAUGCAAGATT against MYH1, the median seed-adjusted z-score is inactive: -0.567. GCAUUACCGCCAGAAUGGUTT against NUDT14: the median seed-adjusted z-score was inactive: 0.479. As for GUAUACCGAUUGAUAACCATT against BTAF1, the median seed-adjusted z-score was active: -1.19.

For the sequence GCAAUGAAUUAGCCUUGAATT against PKIA, the median seed-adjusted z-score was inactive: 0.533. Turning to GGUGUAAAGUAAUUGUAGATT against PCDHGB7, the median seed-adjusted z-score was inactive: -0.0065. Consider GGACAUCGAGACUAUAAAATT against PTGFR, for which the median seed-adjusted z-score is inactive: 0. As for AUAGAUGUAUAGUCAAAAATT against COX8C, the median seed-adjusted z-score is inactive: -0.0513. In the case of GGGUUGGAAUAUCCUAACATT against NDUFS1, the median seed-adjusted z-score is inactive: -0.217.

With CCUGGUCCUGGGUAAGUUUTT against ADARB1, the median seed-adjusted z-score was inactive: 0.375.

For the sequence GGGCAUCGCUAAACCCAAATT against LIF, the median seed-adjusted z-score was inactive: 0.273.

As for AGAUGGAGUUCAAUUGCGATT against NF2, the median seed-adjusted z-score is inactive: -0.543. On to GUGGAUAGCUUGGAAUUCATT against CRX, for which the median seed-adjusted z-score is inactive: -0.156. Turning to GAGAGUUAGUUAAACGGUATT against RG9MTD1, the median seed-adjusted z-score was inactive: -0.375. Regarding CGAAGGAUAUCUAUCAUCATT against NXF1, the median seed-adjusted z-score was active: -4.46. In the case of GGAAUACUCUGCUAUUGCATT against UBE2Q1, the median seed-adjusted z-score is inactive: -0.241. On to UGACCACCGCUACGACAAATT against DDAH1, for which the median seed-adjusted z-score was inactive: 0.138.

In the case of GUACAGGACUUUCCUCUAATT against PTPN2, the median seed-adjusted z-score was inactive: 0.302. ACAUCAUGAGGAAUGCUAUTT against UCP3: the median seed-adjusted z-score was active: 1.23. Turning to CAAUAUUAGUUGCUGUAUATT against PPAP2A, the median seed-adjusted z-score was inactive: 0.

Regarding GCCUGAAUUUGCUAGUGUATT against SLC30A1, the median seed-adjusted z-score is inactive: 0.314.

In the case of GGAAAGAAGGUAGUCAGUUTT against ZNF709, the median seed-adjusted z-score is inactive: 0.0129. Take CCUGAGAGGUUCCAACUAUTT against ITGAL: the median seed-adjusted z-score is inactive: 0.537. In the case of UCACAGAGCCUAUUAUUUUTT against PRKY, the median seed-adjusted z-score is inactive: 0.168. Under CAUCAAAUGUAAACGACGATT against REPS1 stands inactive: 0.185; under GCUGGUUAAUAAUCCACUATT against POU6F2, inactive: 0.416. Under CUCAGUUGGUUGAUAUGAATT against FGA stands inactive: 0.267; under GCAGAUUGCUAGGACCACATT against MYOT, inactive: 0.091. Turning to CAGGUGAUAUGGAGUGUAUTT against SNX18, the median seed-adjusted z-score is inactive: 0. As to GAGGCGGCAUUAAGAGGAATT against NPPB, the median seed-adjusted z-score is inactive: -0.973. Under CAACAUACCUCAAUCCUGUTT against MMP11 stands inactive: -0.354. Under GCAAUAAUCUCUCGCAGUATT against TP73 stands inactive: 0.353; under GAAUAGAUCUGAACCGGAATT against CPE, inactive: 0.139.

In the case of GAAACACUCUCAGAUGCUATT against DNAJB9, the median seed-adjusted z-score was inactive: 0.0962.

CCCAAUUGUAUAUCUGAUATT against CYSLTR2: the median seed-adjusted z-score was inactive: 0.0461. CGGAUAACUUUAUCUUGUUTT against NTRK3: the median seed-adjusted z-score was inactive: 0. For CCUAAGGGCAUGUAUUUAATT against RCOR3, the median seed-adjusted z-score is inactive: 0.0446. Turning to UGGGCACAAUGGUUACUCATT against POGZ, the median seed-adjusted z-score was inactive: -0.376. As for GGAUGGGUCUCGCAAAAUATT against ZFYVE1, the median seed-adjusted z-score is inactive: -0.546. For the sequence GGAAAGCUCUUCGUCUGGATT against IFIT5, the median seed-adjusted z-score is inactive: 0. Under GGUACAAGGAUGAUACGGATT against ALPK3 stands inactive: 0.365; under CAGCAUCACCAGUUCAUGUTT against ZNF526, inactive: 0.0265; under GAGCUAAAACGGAGCUUUUTT against MYC, inactive: -0.543. Take CAAAGACCGUGAUUUAGCATT against BRDT: the median seed-adjusted z-score was inactive: -0.357. As for ACACUCAACUACUGCGUAUTT against TSPO, the median seed-adjusted z-score is inactive: -0.206. With GAAGGUAAAGAGCUAGAAATT against CALB2, the median seed-adjusted z-score was inactive: 0.

For the sequence GUACCUUGCUUACAUAAAUTT against SMARCE1, the median seed-adjusted z-score was inactive: 0. With GAUGCUUCCUGGAACCCUUTT against RAD54L2, the median seed-adjusted z-score is inactive: -0.0646. Turning to GCAUCUCCAUGUAGAAUAATT against FGF1, the median seed-adjusted z-score was inactive: 0.415. With AGAUAACAGCAUGGAUUUATT against MMD, the median seed-adjusted z-score is inactive: 0.193. As to GACUUCUGCUGAUACUUUUTT against GPR156, the median seed-adjusted z-score is inactive: 0. For GAGCUUCGAUUCAAUAAAATT against SLC5A6, the median seed-adjusted z-score was inactive: 0.994. Regarding GCUCCACCCUGUACACUAATT against LMO3, the median seed-adjusted z-score was inactive: 0.496. On to AGAAAGACCUUUUAAUCUATT against SNTB1, for which the median seed-adjusted z-score is inactive: 0.488. For the sequence GUGCUAAAAUCUUCGGUAATT against PCDHB12, the median seed-adjusted z-score is inactive: -0.0664. In the case of GAAGCCGACCAGAAUGAUATT against ITPK1, the median seed-adjusted z-score is inactive: 0.0575. Under GCUACGAUGUGGAAACAGATT against KEAP1 stands inactive: 0.207; under CGAGUUACUUUUCAGCUAATT against MYH4, active: -1.8; under CUACCUGGGUUACUAAACATT against HNRNPU, inactive: 0.431. For the sequence CAAUCGCAGAGAAGCUGAATT against KRT40, the median seed-adjusted z-score is inactive: -0.324. Turning to GCAACAAGUUCACCCAGAATT against CHST11, the median seed-adjusted z-score is inactive: -0.275. Take AGCUGUUGAUAGUAUUGAATT against TSNARE1: the median seed-adjusted z-score is inactive: -0.0516. On to GAAUCCGAGUUAACAGUAATT against SLC4A1AP, for which the median seed-adjusted z-score was inactive: -0.0117. Take CCUCAACUAUCAGAACAAUTT against KLF10: the median seed-adjusted z-score is inactive: 0.616. With GCUUGUAACUUUCAACUAATT against ZNF781, the median seed-adjusted z-score is inactive: 0.0307. For GUUCCUACGUGUACAACGATT against DNASE1L1, the median seed-adjusted z-score is inactive: 0.542.

As for GCAUCGAAUUUAUCCGCAATT against ZKSCAN2, the median seed-adjusted z-score was inactive: -0.0343. Turning to GGAGAUACAUCACCGAGAATT against ELMO3, the median seed-adjusted z-score is inactive: -0.0898. Under GGAAUGACCUUAAAUGAGATT against UBE2W stands inactive: -0.655.

As to GACUAUGUAUCUUUACGAUTT against OVCH1, the median seed-adjusted z-score is inactive: 0.0211. As for CAAUGAUGGACAUACCAUUTT against CA8, the median seed-adjusted z-score was inactive: 0.172. For the sequence AGAUGUCAGAAGUAUAUAUTT against WNT5A, the median seed-adjusted z-score was inactive: 0.651. GAACCACAAUGUUAACAAUTT against CYBRD1: the median seed-adjusted z-score was inactive: 0.623. For GGGAUUCUGCUGUAUAUGATT against GRID1, the median seed-adjusted z-score was inactive: 0.66.

For the sequence GCCUCCAGGUGUACGUUAATT against KCNMB2, the median seed-adjusted z-score is inactive: 0.

For CAUCAGUGCUGAUAGUGAATT against GNMT, the median seed-adjusted z-score was inactive: 0.0261.

For the sequence GCCUUUGAGUUCAUGCUGUTT against CCRK, the median seed-adjusted z-score is inactive: -0.47. As to CCCUAAAGUUAAUCACCCATT against NUCB2, the median seed-adjusted z-score is inactive: 0.45.

Take GACGAGCUCUUUAACAUCATT against DCLK3: the median seed-adjusted z-score was inactive: -0.0139. Regarding UGGUGACGCUGUUCAAAAATT against POMC, the median seed-adjusted z-score was inactive: 0.374.

Regarding GGAUGAUGAUUACUGGUCUTT against GSN, the median seed-adjusted z-score is inactive: -0.222. In the case of GGCAAUUACCUAUGUAAGATT against AGTR1, the median seed-adjusted z-score was inactive: 0.106. For ACAUCCGCGGCGACAUGUATT against RASD2, the median seed-adjusted z-score was inactive: 0.0673. In the case of CUGCAGAUCUUGUGACAGATT against IMPA2, the median seed-adjusted z-score is inactive: 0.0513. For CCCUGUUACUGCUGCCCUATT against BZRPL1, the median seed-adjusted z-score was inactive: 0.0787. Regarding GCGUCAUGAUGUUCACCUATT against ITGB5, the median seed-adjusted z-score was inactive: -0.00882. GACUCGCAGAAUAAACAUATT against ISOC2: the median seed-adjusted z-score is inactive: -0.599. For CAAAUAUCCCGUACGUGUATT against HTR3A, the median seed-adjusted z-score is inactive: 0.37. With GCAUAUCCGUCUGUCAGAATT against PRC1, the median seed-adjusted z-score is inactive: -0.0195. GGUCUAUGAUAUCACUAGATT against RAB14: the median seed-adjusted z-score was inactive: -0.0567. On to GGGAUAACCUGGAAAAGGATT against APOA1, for which the median seed-adjusted z-score was inactive: -0.239. Under GGACCAUCAUCCUACUGUATT against CCND3 stands inactive: -0.965; under AGCAGAUUGUUAAAAUGUATT against SAV1, inactive: 0.766. Under GAGUGUACACCUUAAACAATT against HP stands inactive: 0. Turning to CCCAGGUGCUUAGAAACAATT against TCEB3B, the median seed-adjusted z-score is inactive: 0.0434. In the case of GGAUCAUCUAUGACCGGAATT against EIF4EBP1, the median seed-adjusted z-score was inactive: -0.161. With CAGCUGGAUUGACAAGUUUTT against MFN2, the median seed-adjusted z-score is inactive: -0.0968. For the sequence GCCCAUUUCAUCAACCUGATT against PRDM15, the median seed-adjusted z-score was inactive: 0.258. Regarding CAACCACAGCUGCAUGUAUTT against GABRB1, the median seed-adjusted z-score is inactive: 0.238. Under GGAUCUCCUUCGAUUUAGATT against PRIM2 stands inactive: -0.0161.
